Results on one substance are retold here after PMC7699638.

Chains of the proteins cited; added tags and fusions are not shown. Lines headed by an entry give the natural chain unless they say otherwise; changes in a name come on top. A line that says so, or that is headed by a name, gives the form on record, which may keep a tag or linker.
UniProt O75116: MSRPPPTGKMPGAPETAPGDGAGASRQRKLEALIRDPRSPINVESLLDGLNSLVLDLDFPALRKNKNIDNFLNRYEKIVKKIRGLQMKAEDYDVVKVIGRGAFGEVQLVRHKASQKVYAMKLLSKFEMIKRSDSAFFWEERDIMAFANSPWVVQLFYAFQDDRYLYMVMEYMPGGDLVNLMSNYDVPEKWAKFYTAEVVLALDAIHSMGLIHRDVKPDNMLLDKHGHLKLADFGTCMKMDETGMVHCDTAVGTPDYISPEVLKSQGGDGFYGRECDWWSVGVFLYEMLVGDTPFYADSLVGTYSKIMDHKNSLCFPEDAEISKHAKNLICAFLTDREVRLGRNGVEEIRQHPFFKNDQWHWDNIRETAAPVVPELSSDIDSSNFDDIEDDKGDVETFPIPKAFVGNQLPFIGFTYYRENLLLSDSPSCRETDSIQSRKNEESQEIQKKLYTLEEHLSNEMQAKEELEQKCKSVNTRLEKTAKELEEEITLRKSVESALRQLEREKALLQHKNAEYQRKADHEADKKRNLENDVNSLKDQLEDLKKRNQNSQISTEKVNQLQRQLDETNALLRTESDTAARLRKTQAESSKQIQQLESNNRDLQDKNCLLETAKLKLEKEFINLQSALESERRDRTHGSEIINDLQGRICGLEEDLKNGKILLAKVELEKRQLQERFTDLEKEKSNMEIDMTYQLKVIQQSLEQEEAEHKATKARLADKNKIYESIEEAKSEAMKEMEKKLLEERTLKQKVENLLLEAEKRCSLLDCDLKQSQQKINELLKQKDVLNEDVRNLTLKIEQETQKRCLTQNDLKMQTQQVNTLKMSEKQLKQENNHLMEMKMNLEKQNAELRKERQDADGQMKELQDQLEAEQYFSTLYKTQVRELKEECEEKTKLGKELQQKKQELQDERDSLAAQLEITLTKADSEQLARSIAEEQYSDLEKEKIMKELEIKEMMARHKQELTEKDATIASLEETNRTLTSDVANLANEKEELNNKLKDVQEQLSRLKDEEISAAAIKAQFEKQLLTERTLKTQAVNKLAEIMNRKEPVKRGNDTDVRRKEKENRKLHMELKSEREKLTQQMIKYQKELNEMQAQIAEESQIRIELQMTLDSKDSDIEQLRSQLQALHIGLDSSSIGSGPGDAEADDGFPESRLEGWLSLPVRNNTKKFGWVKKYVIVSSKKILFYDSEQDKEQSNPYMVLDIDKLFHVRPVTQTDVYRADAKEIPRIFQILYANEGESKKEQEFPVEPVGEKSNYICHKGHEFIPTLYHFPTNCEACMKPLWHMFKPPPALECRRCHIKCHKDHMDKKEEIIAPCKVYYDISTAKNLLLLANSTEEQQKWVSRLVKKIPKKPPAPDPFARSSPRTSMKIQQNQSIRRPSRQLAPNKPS
RhoA (1-181), His-tagged (P61586, form named): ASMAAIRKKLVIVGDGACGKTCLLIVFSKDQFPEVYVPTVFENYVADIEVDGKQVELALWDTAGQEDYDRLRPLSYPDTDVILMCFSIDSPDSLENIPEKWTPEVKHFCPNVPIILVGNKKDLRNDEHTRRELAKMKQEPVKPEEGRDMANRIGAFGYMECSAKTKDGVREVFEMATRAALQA

These are yes or no findings as the source states them, for the method shown. Some entries that bind do so weakly or less than the wild type.

The target of the assay is full-length ROCK2 (Rho-associated protein kinase 2), MBP tag removed (human) (UniProt O75116). As to the kind of experiment: SEC; Superose 12; 20 mM HEPES pH 7.4, 150 mM NaCl, 3 mM MgCl2; 5 µM ROCK2, 5 µM RhoA and 5 µM BODIPY-GTP in combinations; absorbance at 280 and 488 nm; both purified. On the technique in general: SEC sorts molecules by how far they enter the pores of the column.

As to “RhoA (1-181), His-tagged (from UniProt P61586 1-181) (domain or fragment)”, the binding result was “binds weakly”.
